For 115 substances, growth estimate results are on record in the supplement of paper PMC5949888.

Most values lie at the floor of the assay. Slopes are relative: functional sequences can read slightly below zero.

The series concerns Saccharomyces cerevisiae PS128 hsf1 delta, HSF1(1-493) fusion. The experiment in a line: growth estimate (transactivation domain function in HSF1 fusion, heat-shock survival) (a.u. (slope of normalised read count over time)); higher = stronger growth at 37°C, i.e. more transactivation activity. Particulars: library: random library. How it is done:
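Random 60-nt DNA library encoding peptides of up to 20 aa, fused to the C-terminus of yeast HSF1 residues 1-493 (C-terminal TAD deleted) and expressed from the native HSF1 promoter on a CEN plasmid in hsf1-deleted S. cerevisiae PS128. Cells were selected at 37°C on -trp 5-FOA plates for 0, 2, 4, 6 and 8 days and amplicons were sequenced. Growth estimate is the slope of a robust linear fit of total-sum-normalised read counts (normalised to the first time point) over time, using at least 2 replicates. Sequences are classed functional (TAD activity) above a threshold of -0.13, set from stop-codon control sequences.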
Take QEK: the growth estimate is below -0.25.
As for TAQGHLCSIAADTNSVSDHR, the growth estimate is below -0.25.
To HHRCRWALN belongs below -0.25; to GPKVKYNGGVGSDAPWGGRP, below -0.25.
Take PTGGARRICNGRKEFRSVAF: the growth estimate was below -0.25.
Regarding LVILKKAGRIRRSFGNYACA, the growth estimate is below -0.25.
Consider RLFITDWYFKS, for which the growth estimate was below -0.25.
For the substance RGMSAHAHEGGEFTI, the growth estimate is -0.25.
RFVYK: the growth estimate was below -0.25.
For the substance THIWGLVRSTNPTISTGSEG, the growth estimate is below -0.25.
Regarding HVPSGRRGFTAIGIGTLGDL, the growth estimate is below -0.25.
With CVDACGATGIWVRAVG, the growth estimate was below -0.25.
QLSGRVATAAGCVSIVWTRK: the growth estimate was below -0.25.
Under RMAHRECADIKRNRVLNRKF stands below -0.25; under YGLYGFACLFAAA, below -0.25.
KHTYRMHVR: the growth estimate is -0.248.
Turning to PKRLSWGTVGVNRSPSYLVR, the growth estimate is below -0.25.
As to CQSKCSGPSTTL, the growth estimate was below -0.25.
Under SDPRGEEVSGRNLSLME stands below -0.25.
In the case of TQHTWPRLAQKHCMRGTGTF, the growth estimate was below -0.25.
CGKIRVI: the growth estimate is below -0.25.
DYRTS: the growth estimate was below -0.25.
Regarding QQLAALS, the growth estimate was below -0.25.
Under NTT stands below -0.25.
Take LDPASLM: the growth estimate was below -0.25.
Turning to VGYTSIEDSRILMPNDQ, the growth estimate is below -0.25.
RRLGLF: the growth estimate was below -0.25.
Turning to KEAWEPALITQVPGNQSSAG, the growth estimate is below -0.25.
In the case of FGITWALT, the growth estimate was below -0.25.
Regarding QYPSERCSCPKRHSRASFQ, the growth estimate is below -0.25.
Regarding TGAGFNRSRGGSSWDLVEAR, the growth estimate is below -0.25.
Regarding GDVVFWVFNLELVRAVRSPS, the growth estimate is below -0.25.
To PCTIKAGPLCVWMENSGASA belongs below -0.25; to LISMVVGVQ, below -0.25.
To RRLPPRVSGYTRPPKRSARS belongs below -0.25; to SHSKPSLSSILDPVAR, below -0.25.
To RGGP belongs below -0.25.
Consider RSYTGNFKYLNEIVV, for which the growth estimate was below -0.25.
For the substance APIVTLTSGPRGLTSSLRRG, the growth estimate was below -0.25.
In the case of WGVDLHRQYGLSQGLVTVLL, the growth estimate was below -0.25.
For DSNIVNRFRASRGRAVARVM, the growth estimate was below -0.25.
Turning to WTRSGIRID, the growth estimate was below -0.25.
Take QTMTGVDVKLAGSAFRYHRN: the growth estimate was below -0.25.
In the case of TVKCRCEKGLVPDV, the growth estimate was below -0.25.
For MWLS, the growth estimate is below -0.25.
With RSSVVSIRTRRTVPW, the growth estimate was below -0.253.
Regarding TQTPSPVNR, the growth estimate is below -0.25.
Under SLGSHVPRRRKAVAVLFRVP stands below -0.25; under PYWHMNVIGNIYSRSCPRTC, below -0.25; under LTLHGQDLVRNTNFLTGSKA, below -0.25.
Regarding ANIILSDLMGMLYACTVSVH, the growth estimate is below -0.25.
To SSSCPRQKDMAV belongs below -0.25; to VSRGIPETHALRLRPGVLSR, below -0.25.
As for TFGAIPQIPRLTLQGSEKAR, the growth estimate was -0.248.
Consider RCEDTLAKLPAYCPWGTGLP, for which the growth estimate is below -0.25.
For the substance RTGLSSAVKSRPIRCVLFRP, the growth estimate is below -0.25.
As to TLLVRGTHASMPEGVVIKLL, the growth estimate was -0.25.
Turning to PNYVQPVSD, the growth estimate was below -0.25.
To SLWKLCVNLMEGQWPSLQVS belongs below -0.25.
Consider SRPRASTPNRLNIQRSREKR, for which the growth estimate was below -0.25.
Take SDYTCELNHD: the growth estimate was below -0.25.
Under NRTNR stands below -0.25; under ALTVRNLPSHQDKL, below -0.25; under VLASQHLSTGHAFTVQHAGA, below -0.25.
Regarding YGRHTWGHASIDMK, the growth estimate is below -0.25.
In the case of RMSTGRA, the growth estimate is below -0.25.
Take PTSLQEGAQ: the growth estimate was below -0.25.
Consider RWTVFQVS, for which the growth estimate was below -0.25.
Regarding AYYSSPAGFERDPTGSRCSA, the growth estimate was below -0.25.
For the substance GVSLMFDKFR, the growth estimate was below -0.25.
Take GSRVWEAGSDARYRDLRVMR: the growth estimate was below -0.25.
To SRG belongs below -0.25; to IYRWSSFVP, below -0.25.
On to RVRFGSCAAVFCLTLYWRI, for which the growth estimate was below -0.25.
With SVQFDSFPTQETLPARGSMG, the growth estimate was below -0.25.
Under RYSPSPQVRSSVKFLFPRCR stands below -0.25; under QEAH, below -0.25; under LLKGVGLPRAVLHWKASSGA, below -0.25.
To KLIRSLGTICELSTNKTFVV belongs below -0.25.
To EGRK belongs below -0.25; to PGGAKIYDLRGARLCMNRTA, below -0.25.
FNPAVRMDVEDSL: the growth estimate is below -0.25.
For the substance VFSRQEYVLVGLFTTHY, the growth estimate is below -0.25.
Consider GLGLSD, for which the growth estimate is below -0.25.
As for LYWVAEVKGPICE, the growth estimate is below -0.25.
As to EAGCSPTRSLWGR, the growth estimate was below -0.25.
In the case of SCEESSDPG, the growth estimate is below -0.25.
MFYVAPSLLVARSRQSKACD: the growth estimate is below -0.25.
HVDQSFGRD: the growth estimate is below -0.25.
Under CTGLNLLHLARSQRGSRDGL stands below -0.25.
Under MNTSAGDSG stands below -0.25; under TRQ, below -0.25.
Regarding CGGISRWQSVWQAFVVATG, the growth estimate was below -0.25.
Take RRSSNNRSTAIRTQPRIIAV: the growth estimate was below -0.25.
To QRSPVANSDDALASEITILD belongs below -0.25; to ADVVIPTRQNSEK, below -0.25.
Consider DCTLPEGLVEDERVRH, for which the growth estimate is below -0.25.
Turning to CVIAGQAST, the growth estimate is below -0.25.
Under SPLIVTSNSVYTNATRIVTT stands below -0.25.
Turning to LEKGAVQRVVRPGPMFDSNS, the growth estimate was below -0.25.
Turning to TVVQMHACPGHRYSSRS, the growth estimate is below -0.25.
For the substance SGVSLFNH, the growth estimate is below -0.25.
Turning to RPRGYRQSPRPDVWVEGGMN, the growth estimate was below -0.25.
Consider LNTGNYKYD, for which the growth estimate is below -0.25.
HPVLVWSEVSFENGMLGM: the growth estimate was below -0.25.
As to YEVTRSIIRLLISVGQDLQL, the growth estimate is below -0.25.
To GGRAVDGGWCCGLN belongs below -0.25; to RPGVGQSSEKCRGFLTSEHL, below -0.25; to DFTLERLFVQVIRC, below -0.25.
Turning to ETAI, the growth estimate is below -0.25.
AYTGRHGHTTW: the growth estimate is below -0.25.
For SLSGGCRPSDSPMDF, the growth estimate was below -0.25.
Under LRQVGQGPS stands below -0.25; under PVLAPVPHQVVRAQAHGRTA, below -0.25; under YECEQPSSTLVPRASIHK, below -0.25.
